In US20040018561A1 (priority 2002, published 2004):

Test: general procedure: Fmoc solid-phase peptide synthesis; Applied Biosystems Fmoc-Amide-Resin (Product number 401435); manufacturer's reagents; manual N-terminal capping with HATU/HOAT, BOP/HOBT or P
Conditions: for isolated mass / final HPLC purity / isolated yield: whole synthesis; for final HPLC purity: analytical reversed phase HPLC

| Substance | isolated mass | final HPLC purity | isolated yield (overall) | isolated yield (overall, scale 0.25 mmol) | isolated yield (overall, scale 0.1 mmol) | step yield (late stage modification step, overall) | isolated yield (overall, scale 1.0 mmol) |
| --- | --- | --- | --- | --- | --- | --- | --- |
| N-2-[(7-methoxy-2-oxo-2H-chromen-4-yl)acetyl]-D-arginyl-L-prolyl-L-leucyl-S-methyl-L-cysteinyl-L-leucyl-3-[(2,4-dinitrophenyl)amino]-L-alanyl-L-alanyl-D-arginyl-D-alpha-glutamyl-D-argininamide | 0.158 g | 93% | 40% |  |  |  |  |
| N-2-[(7-methoxy-2-oxo-2H-chromen-4-yl)acetyl]-D-arginyl-L-prolyl-L-leucylglycyl-L-leucyl-3-[(2,4-dinitrophenyl)amino]-L-alanyl-L-alanyl-L-arginyl-D-alpha-glutamyl-D-argininamide | 0.270 g | 98% |  | 70% |  |  |  |
| N-2-[(7-methoxy-2-oxo-2H-chromen-4-yl)acetyl]-D-arginyl-L-prolyl-L-leucylglycyl-L-leucyl-3-[(2,4-dinitrophenyl)amino]-L-alanyl-beta-alanyl-D-arginyl-beta-alanyl-D-argininamide | 0.139 g | 98% |  | 30% |  |  |  |
| N-[5-(2-oxohexahydro-1H-thieno[3,4-d]imidazol-4-yl)pentanoyl]-L-alpha-glutamyl-L-prolyl-L-leucylglycyl-L-leucyl-L-lysyl-L-alanyl-L-alpha-glutamyl-L-arginyl-L-alpha-glutamine | 0.22 g | 95% | 65% |  |  |  |  |
| N-2-[(7-methoxy-2-oxo-2H-chromen-4-yl)acetyl]-D-arginyl-L-prolyl-L-glutaminyl-L-alpha-glutamyl-6-(benzyloxy)-L-norleucyl-3-[(2,4-dinitrophenyl)amino]-L-alanyl-L-alanyl-D-arginyl-D-alpha-glutamyl-D-argininamide | 0.121 g | 98% | 28% |  |  |  |  |
| 1-[(7-methoxy-2-oxo-2H-chromen-4-yl)acetyl]-L-prolyl-L-leucylglycyl-S-(3-phenylpropyl)-L-cysteinyl-3-[(2,4-dinitrophenyl)amino]-L-alanyl-L-alanyl-L-argininamide | 0.019 g | 97% |  |  | 14% |  |  |
| N-2-[(7-methoxy-2-oxo-2H-chromen-4-yl)acetyl]-D-arginyl-L-prolyl-L-leucylglycyl-L-leucyl-3-[(2,4-dinitrophenyl)amino]-L-alanyl-L-alanyl-D-arginyl-D-alpha-glutamyl-D-argininamide | 0.213 g | 98% |  | 56% |  |  |  |
| N-[5-(2-oxohexahydro-1H-thieno[3,4-d]imidazol-4-yl)pentanoyl]-L-alpha-glutamyl-L-prolyl-L-leucylglycyl-L-leucyl-N˜6˜-{4-{[3-carboxy-4-(6-hydroxy-3-oxo-3H-xanthen-9-yl)phenyl]amino}-6-[(2-hydroxyethyl)thiol]-1,3,5-triazin-2-yl}-L-lysyl-L-al |  |  |  |  |  | 74% |  |
| 1-[(7-methoxy-2-oxo-2H-chromen-4-yl)acetyl]-L-prolyl-L-leucylglycyl-O-benzyl-L-tyrosyl-3-[(2,4-dinitrophenyl)amino]-L-alanyl-L-alanyl-L-argininamide | 0.013 g | 98% |  | 5% |  |  |  |
| 1-[(7-methoxy-2-oxo-2H-chromen-4-yl)acetyl]-L-prolyl-L-leucylglycyl-6-(benzyloxy)-L-norleucyl-3-[(2,4-dinitrophenyl)amino]-L-alanyl-L-alanyl-L-argininamide | 0.019 g | 98% |  |  | 16% |  |  |
| N-2-[(7-methoxy-2-oxo-2H-chromen-4-yl)acetyl]-L-arginyl-L-prolyl-L-leucylglycyl-L-leucyl-3-[(2,4-dinitrophenyl)amino]-L-alanyl-L-alanyl-L-arginyl-L-alpha-glutamyl-D-argininamide | 0.270 g | 98% |  | 70% |  |  |  |
| N-2-[(7-methoxy-2-oxo-2H-chromen-4-yl)acetyl]-L-arginyl-L-prolyl-L-leucylglycyl-6-(benzyloxy)-L-norleucyl-3-[(2,4-dinitrophenyl)amino]-L-alanyl-L-alanyl-L-arginyl-L-alpha-glutamyl-L-argininamide | 0.160 g | 98% | 39% |  |  |  |  |
| N-2-{5-[(3aS,4S,6aR)-2-oxohexahydro-1H-thieno[3,4-d]imidazol-4-yl]pentanoyl}-L-arginyl-L-prolyl-L-leucylglycyl-L-leucyl-L-lysyl-L-alanyl-L-arginyl-L-alpha-glutamyl-L-arginamide | 0.25 g | 99% | 70% |  |  |  |  |
| N-2-[(7-methoxy-2-oxo-2H-chromen-4-yl)acetyl]-D-arginyl-L-prolyl-L-leucyl-L-alpha-glutamyl-6-(benzyloxy)-L-norleucyl-3-[(2,4-dinitrophenyl)amino]-L-alanyl-L-alanyl-D-arginyl-D-alpha-glutamyl-D-argininamide | 0.096 g | 98% | 22% |  |  |  |  |
| 1-[(7-methoxy-2-oxo-2H-chromen-4-yl)acetyl]-L-prolyl-L-leucylglycyl-3-(2-naphthyl)-L-alanyl-3-[(2,4-dinitrophenyl)amino]-L-alanyl-L-alanyl-L-argininamide | 0.013 g | 98% |  | 5% |  |  |  |
| N-2-[(7-methoxy-2-oxo-2H-chromen-4-yl)acetyl]-D-arginyl-L-prolyl-L-leucylglycyl-6-phenoxy-L-norleucyl-3-[(2,4-dinitrophenyl)amino]-L-alanyl-L-alanyl-D-arginyl-D-alpha-glutamyl-D-argininamide | 0.0.662 g | 96% |  |  |  |  | 41% |
| N-2-[(7-methoxy-2-oxo-2H-chromen-4-yl)acetyl]-D-lysyl-L-prolyl-L-leucylglycyl-L-leucyl-3-[(2,4-dinitrophenyl)amino]-L-alanyl-L-alanyl-D-arginyl-D-alpha-glutamyl-D-argininamide | 0.214 g | 98% |  | 53% |  |  |  |
| N-2-[(7-methoxy-2-oxo-2H-chromen-4-yl)acetyl]-L-arginyl-L-prolyl-L-glutaminyl-L-alpha-glutamyl-6-(benzyloxy)-L-norleucyl-3-[(2,4-dinitrophenyl)amino]-L-alanyl-L-alanyl-L-arginyl-L-alpha-glutamyl-L-argininamide | 0.140 g | 99.9% | 32% |  |  |  |  |
| N-2-[(7-methoxy-2-oxo-2H-chromen-4-yl)acetyl]-D-arginyl-L-prolyl-L-leucylglycyl-6-(benzyloxy)-L-norleucyl-3-[(2,4-dinitrophenyl)amino]-L-alanyl-L-alanyl-D-arginyl-D-alpha-glutamyl-D-argininamide | 0.150 g | 98% | 37% |  |  |  |  |
